# Assay results taken from PMC7480851.
# Amino acid sequences for entries named in this document (tags omitted).
# UniProt P22363: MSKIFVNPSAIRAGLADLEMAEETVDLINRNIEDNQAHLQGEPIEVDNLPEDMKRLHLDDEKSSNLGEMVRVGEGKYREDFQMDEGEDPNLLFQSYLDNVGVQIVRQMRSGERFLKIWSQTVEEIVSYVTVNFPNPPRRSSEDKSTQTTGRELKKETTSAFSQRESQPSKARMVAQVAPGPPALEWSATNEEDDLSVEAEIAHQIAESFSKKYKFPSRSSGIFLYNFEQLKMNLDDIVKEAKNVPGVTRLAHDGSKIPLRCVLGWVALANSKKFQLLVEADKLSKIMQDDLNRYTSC
# UniProt P42224: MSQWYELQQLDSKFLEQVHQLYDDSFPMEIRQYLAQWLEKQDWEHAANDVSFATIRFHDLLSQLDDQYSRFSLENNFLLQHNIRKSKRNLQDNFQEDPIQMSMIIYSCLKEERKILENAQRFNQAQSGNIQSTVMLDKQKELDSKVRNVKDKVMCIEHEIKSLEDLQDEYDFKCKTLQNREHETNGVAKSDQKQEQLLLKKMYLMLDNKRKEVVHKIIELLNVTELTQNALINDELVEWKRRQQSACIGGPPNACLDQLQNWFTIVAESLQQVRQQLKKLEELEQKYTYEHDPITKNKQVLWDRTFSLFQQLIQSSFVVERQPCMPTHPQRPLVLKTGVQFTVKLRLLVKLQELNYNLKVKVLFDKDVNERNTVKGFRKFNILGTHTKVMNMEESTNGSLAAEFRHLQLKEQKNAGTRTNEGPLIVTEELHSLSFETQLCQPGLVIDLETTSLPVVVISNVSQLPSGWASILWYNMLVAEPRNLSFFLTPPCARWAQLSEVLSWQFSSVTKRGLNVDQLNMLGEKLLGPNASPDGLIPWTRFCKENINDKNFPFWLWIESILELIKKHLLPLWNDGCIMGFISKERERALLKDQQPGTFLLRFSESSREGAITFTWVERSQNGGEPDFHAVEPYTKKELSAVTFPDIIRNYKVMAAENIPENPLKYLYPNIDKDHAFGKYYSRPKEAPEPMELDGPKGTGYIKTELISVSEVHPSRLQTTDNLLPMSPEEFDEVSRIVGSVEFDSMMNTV
# These are yes or no findings as the source states them, for the method shown. Binding seen in cells or lysates may run through a third protein. Some entries that bind do so weakly or less than the wild type.
# Biological target: GFP-fused full-length wildtype P-protein (phosphoprotein) of rabies virus challenge virus standard (CVS) strain (rabies virus (RABV), strain CVS) (UniProt P22363)
# Experiment: co-IP
substance,measurement,value
"Signal transducer and activator of transcription 1 (STAT1), endogenous (from UniProt P42224 1-750)",binding,binds
